# This is one part of the list.
# Protein sequences, listed by entry. Tags and fused reporters are not part of them. Lines headed by an entry give the natural chain unless they say otherwise; changes in a name come on top.
# UniProt P61006: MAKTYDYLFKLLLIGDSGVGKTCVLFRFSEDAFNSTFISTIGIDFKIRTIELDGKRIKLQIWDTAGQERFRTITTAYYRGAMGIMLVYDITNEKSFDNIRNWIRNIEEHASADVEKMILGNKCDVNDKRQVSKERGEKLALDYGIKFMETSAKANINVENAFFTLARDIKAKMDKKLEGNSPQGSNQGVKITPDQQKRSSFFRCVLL
# UniProt O43502: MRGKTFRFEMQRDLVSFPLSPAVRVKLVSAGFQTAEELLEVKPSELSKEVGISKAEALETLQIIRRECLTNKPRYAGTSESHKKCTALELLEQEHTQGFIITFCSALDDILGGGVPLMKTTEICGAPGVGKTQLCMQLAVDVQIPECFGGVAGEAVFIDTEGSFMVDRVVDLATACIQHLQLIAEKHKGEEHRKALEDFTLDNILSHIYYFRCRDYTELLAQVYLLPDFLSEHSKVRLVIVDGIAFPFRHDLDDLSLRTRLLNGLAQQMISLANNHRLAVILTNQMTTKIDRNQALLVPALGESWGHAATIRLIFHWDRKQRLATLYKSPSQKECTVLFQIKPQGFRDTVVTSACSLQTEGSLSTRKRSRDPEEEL
# UniProt O00194: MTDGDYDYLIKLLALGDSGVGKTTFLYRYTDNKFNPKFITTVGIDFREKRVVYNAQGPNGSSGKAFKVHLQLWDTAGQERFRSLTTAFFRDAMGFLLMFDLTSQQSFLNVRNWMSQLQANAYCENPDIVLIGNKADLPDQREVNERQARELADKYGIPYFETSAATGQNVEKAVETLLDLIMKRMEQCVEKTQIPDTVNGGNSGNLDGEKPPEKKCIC
# UniProt P06400: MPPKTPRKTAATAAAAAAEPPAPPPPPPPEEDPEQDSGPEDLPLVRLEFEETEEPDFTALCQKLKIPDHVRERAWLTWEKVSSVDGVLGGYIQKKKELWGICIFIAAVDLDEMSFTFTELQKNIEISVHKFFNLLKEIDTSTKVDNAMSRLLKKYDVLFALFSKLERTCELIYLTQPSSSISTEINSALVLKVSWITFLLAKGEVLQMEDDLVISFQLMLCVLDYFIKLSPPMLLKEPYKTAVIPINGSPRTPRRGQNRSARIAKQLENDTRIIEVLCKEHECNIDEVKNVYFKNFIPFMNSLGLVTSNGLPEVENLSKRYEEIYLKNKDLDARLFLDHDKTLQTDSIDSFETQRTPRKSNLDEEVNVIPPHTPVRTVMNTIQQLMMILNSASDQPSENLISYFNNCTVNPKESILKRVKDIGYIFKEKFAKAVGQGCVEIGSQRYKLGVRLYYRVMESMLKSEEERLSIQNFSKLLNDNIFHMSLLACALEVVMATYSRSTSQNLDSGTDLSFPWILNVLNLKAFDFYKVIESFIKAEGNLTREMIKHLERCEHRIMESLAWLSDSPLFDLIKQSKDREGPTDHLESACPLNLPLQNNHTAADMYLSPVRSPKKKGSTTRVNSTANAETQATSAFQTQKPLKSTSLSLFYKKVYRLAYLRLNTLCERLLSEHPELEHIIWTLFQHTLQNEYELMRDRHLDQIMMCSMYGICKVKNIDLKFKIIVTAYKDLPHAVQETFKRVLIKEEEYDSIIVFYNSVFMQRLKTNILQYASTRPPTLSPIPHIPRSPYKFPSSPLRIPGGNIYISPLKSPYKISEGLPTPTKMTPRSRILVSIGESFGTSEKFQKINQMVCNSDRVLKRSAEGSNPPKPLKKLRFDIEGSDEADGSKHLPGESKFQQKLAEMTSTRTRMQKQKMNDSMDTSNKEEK
# UniProt Q9H0H5: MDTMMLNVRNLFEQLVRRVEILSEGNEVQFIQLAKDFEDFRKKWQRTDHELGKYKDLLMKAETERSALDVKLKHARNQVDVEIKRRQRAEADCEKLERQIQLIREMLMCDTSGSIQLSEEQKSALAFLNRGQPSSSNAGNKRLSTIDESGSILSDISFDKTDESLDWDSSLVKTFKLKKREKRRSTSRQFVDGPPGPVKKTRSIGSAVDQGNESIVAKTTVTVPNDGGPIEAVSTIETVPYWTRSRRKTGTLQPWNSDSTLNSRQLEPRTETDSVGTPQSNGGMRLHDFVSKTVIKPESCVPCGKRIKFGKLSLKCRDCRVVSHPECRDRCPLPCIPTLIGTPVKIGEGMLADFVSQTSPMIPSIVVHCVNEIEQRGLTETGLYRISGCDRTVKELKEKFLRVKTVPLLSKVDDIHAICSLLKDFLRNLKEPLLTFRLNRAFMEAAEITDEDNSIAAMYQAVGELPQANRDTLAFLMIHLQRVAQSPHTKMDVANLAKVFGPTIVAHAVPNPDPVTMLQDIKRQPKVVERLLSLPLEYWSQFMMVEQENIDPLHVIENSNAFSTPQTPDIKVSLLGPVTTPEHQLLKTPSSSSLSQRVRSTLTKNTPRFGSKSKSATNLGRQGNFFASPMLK
# UniProt P61019: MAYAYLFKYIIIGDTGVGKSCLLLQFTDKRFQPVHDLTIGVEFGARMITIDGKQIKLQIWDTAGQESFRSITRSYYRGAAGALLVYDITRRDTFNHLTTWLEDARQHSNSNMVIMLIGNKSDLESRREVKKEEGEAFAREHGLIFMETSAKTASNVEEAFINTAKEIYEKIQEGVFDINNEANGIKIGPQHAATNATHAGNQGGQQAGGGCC
# UniProt P61026: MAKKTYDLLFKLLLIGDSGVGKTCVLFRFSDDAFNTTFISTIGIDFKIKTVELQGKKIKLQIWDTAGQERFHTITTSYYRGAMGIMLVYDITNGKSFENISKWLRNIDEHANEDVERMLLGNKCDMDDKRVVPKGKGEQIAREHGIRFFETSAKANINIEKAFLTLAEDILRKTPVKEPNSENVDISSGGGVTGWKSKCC
# UniProt Q15286: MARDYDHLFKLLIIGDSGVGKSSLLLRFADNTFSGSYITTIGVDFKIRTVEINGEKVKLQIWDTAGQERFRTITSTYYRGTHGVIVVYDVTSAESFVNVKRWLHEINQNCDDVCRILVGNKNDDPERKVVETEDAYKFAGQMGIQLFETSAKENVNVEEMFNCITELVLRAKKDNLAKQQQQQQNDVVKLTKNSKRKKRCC
# UniProt Q96S59, whole entry, looked up: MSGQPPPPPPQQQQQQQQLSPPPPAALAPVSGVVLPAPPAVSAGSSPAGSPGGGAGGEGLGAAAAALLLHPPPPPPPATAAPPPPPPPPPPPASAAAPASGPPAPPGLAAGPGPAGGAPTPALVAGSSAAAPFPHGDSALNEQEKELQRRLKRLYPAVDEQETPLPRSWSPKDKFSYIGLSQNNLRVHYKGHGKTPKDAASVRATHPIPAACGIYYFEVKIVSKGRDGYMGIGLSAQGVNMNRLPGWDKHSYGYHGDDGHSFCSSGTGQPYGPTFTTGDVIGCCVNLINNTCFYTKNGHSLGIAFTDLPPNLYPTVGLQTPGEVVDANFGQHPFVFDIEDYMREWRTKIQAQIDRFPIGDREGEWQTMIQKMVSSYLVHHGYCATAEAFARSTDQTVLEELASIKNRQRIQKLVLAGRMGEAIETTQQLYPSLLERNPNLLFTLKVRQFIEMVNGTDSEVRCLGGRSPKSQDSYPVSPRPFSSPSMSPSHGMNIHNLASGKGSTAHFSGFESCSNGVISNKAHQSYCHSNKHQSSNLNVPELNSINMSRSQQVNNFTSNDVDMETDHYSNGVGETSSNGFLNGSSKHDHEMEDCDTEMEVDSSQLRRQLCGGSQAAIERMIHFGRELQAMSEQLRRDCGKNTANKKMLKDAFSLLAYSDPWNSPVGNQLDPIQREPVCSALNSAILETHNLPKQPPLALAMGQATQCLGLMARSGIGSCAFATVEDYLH
# UniProt Q9Y3P9: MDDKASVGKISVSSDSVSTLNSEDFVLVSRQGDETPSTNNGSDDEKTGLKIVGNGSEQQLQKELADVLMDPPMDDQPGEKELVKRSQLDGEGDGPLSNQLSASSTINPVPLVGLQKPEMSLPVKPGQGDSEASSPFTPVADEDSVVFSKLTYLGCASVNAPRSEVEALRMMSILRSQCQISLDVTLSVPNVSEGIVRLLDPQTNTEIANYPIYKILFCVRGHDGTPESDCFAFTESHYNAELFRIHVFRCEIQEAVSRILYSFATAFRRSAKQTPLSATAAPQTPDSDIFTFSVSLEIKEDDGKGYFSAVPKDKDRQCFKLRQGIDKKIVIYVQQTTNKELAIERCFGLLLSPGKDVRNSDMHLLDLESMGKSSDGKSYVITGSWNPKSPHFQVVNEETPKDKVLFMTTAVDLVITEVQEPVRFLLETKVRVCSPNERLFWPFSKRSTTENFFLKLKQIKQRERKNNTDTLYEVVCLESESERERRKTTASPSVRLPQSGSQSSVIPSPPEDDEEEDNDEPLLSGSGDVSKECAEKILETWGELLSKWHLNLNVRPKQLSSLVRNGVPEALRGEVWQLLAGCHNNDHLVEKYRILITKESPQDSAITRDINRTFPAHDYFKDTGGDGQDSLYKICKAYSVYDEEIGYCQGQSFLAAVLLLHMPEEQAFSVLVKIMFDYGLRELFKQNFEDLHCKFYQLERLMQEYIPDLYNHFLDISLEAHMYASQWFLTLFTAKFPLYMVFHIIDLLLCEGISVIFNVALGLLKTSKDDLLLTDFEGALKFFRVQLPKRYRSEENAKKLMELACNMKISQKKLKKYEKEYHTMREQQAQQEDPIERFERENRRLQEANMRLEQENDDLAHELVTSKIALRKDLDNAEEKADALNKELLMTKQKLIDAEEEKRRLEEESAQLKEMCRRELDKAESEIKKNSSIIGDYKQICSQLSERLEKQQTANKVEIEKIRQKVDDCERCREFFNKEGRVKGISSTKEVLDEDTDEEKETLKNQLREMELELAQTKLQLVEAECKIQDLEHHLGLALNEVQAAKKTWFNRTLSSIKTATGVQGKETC
# UniProt P62491: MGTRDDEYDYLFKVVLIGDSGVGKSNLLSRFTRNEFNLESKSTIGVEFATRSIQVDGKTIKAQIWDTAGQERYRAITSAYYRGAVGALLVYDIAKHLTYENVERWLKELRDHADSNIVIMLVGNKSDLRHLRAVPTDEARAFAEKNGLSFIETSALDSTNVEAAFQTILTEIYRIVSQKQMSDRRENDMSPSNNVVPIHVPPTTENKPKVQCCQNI
# UniProt Q96B01: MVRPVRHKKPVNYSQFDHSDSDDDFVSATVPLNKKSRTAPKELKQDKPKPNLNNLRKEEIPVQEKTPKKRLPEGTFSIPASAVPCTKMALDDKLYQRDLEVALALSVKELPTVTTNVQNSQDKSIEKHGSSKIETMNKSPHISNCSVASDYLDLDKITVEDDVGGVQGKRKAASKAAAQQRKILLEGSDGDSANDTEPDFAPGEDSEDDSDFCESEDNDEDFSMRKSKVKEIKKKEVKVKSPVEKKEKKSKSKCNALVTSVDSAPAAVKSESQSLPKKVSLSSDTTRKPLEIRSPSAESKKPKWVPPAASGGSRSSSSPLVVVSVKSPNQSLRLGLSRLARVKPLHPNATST
# UniProt P54725: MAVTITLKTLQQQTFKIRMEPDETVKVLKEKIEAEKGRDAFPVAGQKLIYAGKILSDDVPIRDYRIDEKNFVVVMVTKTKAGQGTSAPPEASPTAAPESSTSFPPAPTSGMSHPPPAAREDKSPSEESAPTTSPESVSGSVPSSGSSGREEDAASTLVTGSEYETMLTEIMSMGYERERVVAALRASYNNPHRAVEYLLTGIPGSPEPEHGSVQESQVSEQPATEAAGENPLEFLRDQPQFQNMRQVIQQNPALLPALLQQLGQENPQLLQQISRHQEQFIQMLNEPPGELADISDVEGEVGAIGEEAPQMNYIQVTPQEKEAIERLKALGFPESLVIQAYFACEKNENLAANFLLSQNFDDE
# UniProt Q9UJ41, whole entry, looked up: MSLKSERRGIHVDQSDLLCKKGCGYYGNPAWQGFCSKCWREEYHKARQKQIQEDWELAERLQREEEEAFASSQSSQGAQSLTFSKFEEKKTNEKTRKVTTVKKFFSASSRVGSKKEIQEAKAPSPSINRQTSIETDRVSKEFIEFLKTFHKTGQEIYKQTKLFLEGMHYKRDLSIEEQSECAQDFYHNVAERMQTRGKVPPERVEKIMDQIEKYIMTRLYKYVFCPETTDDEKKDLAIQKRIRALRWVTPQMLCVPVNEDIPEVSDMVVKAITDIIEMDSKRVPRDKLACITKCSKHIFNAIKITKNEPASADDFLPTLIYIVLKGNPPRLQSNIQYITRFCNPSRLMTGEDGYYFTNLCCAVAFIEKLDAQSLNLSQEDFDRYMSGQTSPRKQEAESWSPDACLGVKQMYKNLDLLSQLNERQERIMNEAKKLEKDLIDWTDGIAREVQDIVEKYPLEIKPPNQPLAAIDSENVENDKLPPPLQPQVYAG
# Legend:
# Assay in all cases: log2 fold change, soluble protein after heating vs DMSO (PISA); higher = thermal stabilisation; K562 cells, 10 uM, 30 min; active = over 0.2 and 3.5 SD of the protein, either way, in both replicates (recomputed)
# saracatinib = compound: CN1CCN(CCOc2cc(OC3CCOCC3)c3c(Nc4c(Cl)ccc5c4OCO5)ncnc3c2)CC1 [saracatinib]
# Outline: (§1)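 Thermal stability values are relative to control samples and come from duplicates. They are expressed as log2 fold changes. For measurement, K562 cells (2×10^6 cells/mL) received 10 μM compound for 30 min, and aliquots were heated for 3 min over 48°C-58°C, pooled, and extracted at 4°C in PBS with 0.5% NP-40. Soluble protein, the supernatant after 21,000xg for 90 min, was quantified by TMTpro 16plex LC-MS/MS with equalised channel sums.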
# sotrastaurin = compound: CN1CCN(c2nc(C3=C(c4c[nH]c5ccccc45)C(=O)NC3=O)c3ccccc3n2)CC1 [sotrastaurin]
# Outline: as §1
# alvocidib = compound: CN1CC[C@H](c2c(O)cc(O)c3c(=O)cc(-c4ccccc4Cl)oc23)[C@H](O)C1 [alvocidib]
# Outline: as §1
# Tubastatin A = compound: CN1CCc2c(c3ccccc3n2Cc2ccc(C(=O)NO)cc2)C1 [Tubastatin A]
# Outline: as §1
# [1] = compound: CNC(=O)C1=CC=CC=C1NC2=NC(=NC=C2Cl)NC3=C(C=C(C=C3)N4CCOCC4)OC
# Outline: as §1
# defactinib = compound: CNC(=O)c1ccc(Nc2ncc(C(F)(F)F)c(NCc3nccnc3N(C)S(C)(=O)=O)n2)cc1 [defactinib]
# Outline: as §1
# rucaparib = compound: CNCc1ccc(-c2[nH]c3cc(F)cc4c3c2CCNC4=O)cc1 [rucaparib]
# Outline: as §1
# [2] = compound: CNc1nc(-c2ccc3c(N)n[nH]c3c2)cc(N2C[C@@H](C(=O)NC3CCCCC3)CC[C@H]2C)n1
# Outline: as §1
# encorafenib = compound: COC(=O)N[C@@H](C)CNc1nccc(-c2cn(C(C)C)nc2-c2cc(Cl)cc(NS(C)(=O)=O)c2F)n1 [encorafenib]
# Outline: as §1
# [3] = compound: COC(=O)[C@H](CCSC)NC(=O)C1=C(C=C(C=C1)NC[C@H](CS)N)C2=CC=CC=C2
# Outline: as §1
# [4] = compound: COC1=CC=C(C=C1)CN2C=CC3=C2C=C(C=C3)C(=O)NO
# Outline: as §1
# filanesib = compound: CON(C)C(=O)N1N=C(c2cc(F)ccc2F)S[C@@]1(CCCN)c1ccccc1 [filanesib]
# Outline: as §1
# zotarolimus = compound: CO[C@H]1C[C@@H]2CC[C@@H](C)[C@@](O)(O2)C(=O)C(=O)N2CCCC[C@H]2C(=O)O[C@H]([C@H](C)C[C@@H]2CC[C@H](n3cnnn3)[C@H](OC)C2)CC(=O)[C@H](C)/C=C(\C)[C@@H](O)[C@@H](OC)C(=O)[C@H](C)C[C@H](C)/C=C/C=C/C=C/1C [zotarolimus]
# Outline: as §1
# idasanutlin = compound: COc1cc(C(=O)O)ccc1NC(=O)[C@@H]1N[C@@H](CC(C)(C)C)[C@](C#N)(c2ccc(Cl)cc2F)[C@H]1c1cccc(Cl)c1F [idasanutlin]
# Outline: as §1
# alisertib = compound: COc1cc(Nc2ncc3c(n2)-c2ccc(Cl)cc2C(c2c(F)cccc2OC)=NC3)ccc1C(=O)O [alisertib]
# Outline: as §1
# [5] = compound: COc1cc2nc(-c3cc(F)ccc3O)nc(N[C@@H]3CNC[C@H]3C(C)(C)O)c2cc1OC
# Outline: as §1
# gefitinib = compound: COc1cc2ncnc(Nc3ccc(F)c(Cl)c3)c2cc1OCCCN1CCOCC1 [gefitinib]
# Outline: as §1
# [6] = compound: COc1cccc2cc(-c3nc([C@H]4CC[C@H](C(=O)O)CC4)n4ncnc(N)c34)[nH]c12
# Outline: as §1
# lapatinib = compound: CS(=O)(=O)CCNCc1ccc(-c2ccc3ncnc(Nc4ccc(OCc5cccc(F)c5)c(Cl)c4)c3c2)o1 [lapatinib]
# Outline: as §1
# pictilisib = compound: CS(=O)(=O)N1CCN(Cc2cc3nc(-c4cccc5[nH]ncc45)nc(N4CCOCC4)c3s2)CC1 [pictilisib]
# Outline: as §1
Target,log2 fold change (saracatinib),log2 fold change (sotrastaurin),log2 fold change (alvocidib),log2 fold change (Tubastatin A),log2 fold change [1],log2 fold change (defactinib),log2 fold change (rucaparib),log2 fold change [2],log2 fold change (encorafenib),log2 fold change [3],log2 fold change [4],log2 fold change (filanesib),log2 fold change (zotarolimus),log2 fold change (idasanutlin),log2 fold change (alisertib),log2 fold change [5],log2 fold change (gefitinib),log2 fold change [6],log2 fold change (lapatinib),log2 fold change (pictilisib)
"RAPGEF5, A0A590UJR0",inactive: -0.747,inactive: 0.001,inactive: 0.19,inactive: 0.323,inactive: 0.009,inactive: -0.323,inactive: -0.107,inactive: -0.043,inactive: -0.018,inactive: -0.238,inactive: -0.007,inactive: -0.106,inactive: 0.151,inactive: -0.872,inactive: -0.045,inactive: 0.185,inactive: -0.004,inactive: 0.073,inactive: 0.096,inactive: 0.215
RAB8A isoform 2 (UniProt P61006),inactive: 0.024,inactive: 0.038,inactive: 0.003,inactive: -0.066,inactive: 0.012,inactive: 0.016,inactive: -0.052,inactive: -0.031,inactive: 0.012,inactive: -0.009,inactive: -0.1,inactive: -0.049,inactive: -0.055,inactive: -0.071,inactive: -0.023,inactive: 0.014,inactive: 0.019,inactive: 0.043,inactive: 0.012,inactive: 0.049
RAD51C (UniProt O43502),inactive: -0.008,inactive: 0.009,inactive: -0.019,inactive: 0.021,inactive: -0.007,inactive: -0.017,inactive: -0.013,inactive: -0.036,inactive: 0.002,inactive: 0.024,inactive: 0.009,inactive: -0.004,inactive: 0.014,inactive: -0.04,inactive: -0.003,inactive: 0.046,inactive: -0.009,inactive: 0.029,inactive: 0.033,inactive: 0.009
RAB27B (UniProt O00194),inactive: 0.088,inactive: 0.012,inactive: -0.058,inactive: 0.039,inactive: -0.057,inactive: -0.003,inactive: -0.091,inactive: -0.029,inactive: -0.015,inactive: 0.023,inactive: -0.016,inactive: 0.029,inactive: -0.087,inactive: 0.096,inactive: 0.111,inactive: -0.031,inactive: 0.038,inactive: -0.109,inactive: -0.004,inactive: -0.092
RB1 (UniProt P06400),inactive: 0.026,inactive: -0.038,active: -0.885,inactive: 0.061,inactive: 0.026,inactive: -0.176,inactive: -0.195,inactive: 0.016,inactive: 0.006,inactive: 0.019,inactive: -0.028,inactive: -0.08,inactive: 0.011,inactive: 0,inactive: -0.016,active: -0.325,inactive: 0.006,inactive: 0.052,inactive: 0.025,inactive: 0.033
RACGAP1 (UniProt Q9H0H5),inactive: -0.096,inactive: -0.107,inactive: -0.13,inactive: -0.006,inactive: -0.152,inactive: -0.109,inactive: 0.067,inactive: -0.048,inactive: 0.181,inactive: -0.109,inactive: 0.055,inactive: 0.027,inactive: -0.009,inactive: 0.218,inactive: 0.017,inactive: 0.021,inactive: 0.109,inactive: -0.023,inactive: 0.005,inactive: -0.006
RAB2A (UniProt P61019),inactive: 0.03,inactive: 0.093,inactive: 0.062,inactive: -0.002,inactive: 0.004,inactive: -0.023,inactive: -0.087,inactive: -0.015,inactive: -0.001,inactive: 0.006,inactive: -0.044,inactive: -0.048,inactive: -0.092,inactive: -0.03,inactive: -0.036,inactive: 0.004,inactive: -0.004,inactive: 0.059,inactive: 0.032,inactive: 0.06
RAB10 (UniProt P61026),inactive: 0.026,inactive: 0.037,inactive: -0.005,inactive: -0.02,inactive: -0.012,inactive: -0.007,inactive: -0.034,inactive: -0.026,inactive: -0.002,inactive: -0.006,inactive: -0.049,inactive: -0.064,inactive: 0.003,inactive: -0.024,inactive: -0.015,inactive: 0.055,inactive: 0.01,inactive: 0.036,inactive: -0.01,inactive: 0.005
RAB35 (UniProt Q15286),inactive: 0.061,inactive: 0.058,inactive: 0.012,inactive: -0.017,inactive: 0.032,inactive: 0.017,inactive: -0.015,inactive: -0.007,inactive: -0.019,inactive: 0.052,inactive: -0.041,inactive: -0.037,inactive: -0.042,inactive: -0.015,inactive: -0.072,inactive: -0.034,inactive: 0.044,inactive: 0.063,inactive: 0.024,inactive: 0.134
RANBP9 (UniProt Q96S59),inactive: 0.041,inactive: -0.107,inactive: -0.023,inactive: -0.004,inactive: 0.028,inactive: -0.038,inactive: 0.048,inactive: -0.005,inactive: 0.035,inactive: 0.004,inactive: 0.012,inactive: 0.008,inactive: 0,inactive: -0.029,inactive: -0.055,inactive: 0.028,inactive: 0.086,inactive: -0.025,inactive: 0.034,inactive: 0.051
RABGAP1 (UniProt Q9Y3P9),inactive: 0.044,inactive: -0.011,inactive: -0.015,inactive: -0.033,inactive: -0.055,inactive: -0.025,inactive: 0.003,inactive: -0.012,inactive: 0.053,inactive: -0.009,inactive: -0.013,inactive: 0.021,inactive: -0.026,inactive: 0.014,inactive: 0.003,inactive: -0.003,inactive: -0.03,inactive: -0.015,inactive: -0.037,inactive: 0.027
RAB11A (UniProt P62491),inactive: 0.027,inactive: 0.05,inactive: -0.01,inactive: 0,inactive: -0.061,inactive: 0.016,inactive: 0.022,inactive: -0.118,inactive: -0.04,inactive: 0.104,inactive: 0.096,inactive: 0.009,inactive: -0.052,inactive: 0.022,inactive: -0.031,inactive: 0.079,inactive: -0.017,inactive: -0.025,inactive: -0.112,inactive: 0.157
RAD51AP1 (UniProt Q96B01),inactive: 0.014,inactive: 0.035,inactive: -0.012,inactive: 0.139,inactive: -0.024,inactive: -0.006,inactive: -0.065,inactive: -0.041,inactive: -0.109,inactive: 0.036,inactive: -0.041,inactive: 0.024,inactive: -0.026,inactive: -0.024,inactive: -0.007,inactive: 0.036,inactive: 0.051,inactive: 0.025,inactive: -0.083,inactive: -0.075
RAD23A (UniProt P54725),inactive: 0.004,inactive: 0.071,inactive: 0.017,inactive: -0.017,inactive: -0.027,inactive: 0,inactive: -0.041,inactive: -0.027,inactive: -0.021,inactive: 0.056,inactive: -0.078,inactive: 0.021,inactive: -0.007,inactive: 0.092,inactive: -0.118,inactive: -0.033,inactive: 0.015,inactive: 0.047,inactive: -0.024,inactive: -0.002
RABGEF1 isoform 3 (UniProt Q9UJ41),inactive: -0.031,inactive: 0.007,inactive: -0.003,inactive: 0.08,inactive: 0.017,inactive: -0.045,inactive: -0.04,inactive: 0.031,inactive: -0.046,inactive: 0.056,inactive: 0.065,inactive: 0.025,inactive: 0.038,inactive: 0.008,inactive: -0.018,inactive: 0.046,inactive: -0.047,inactive: 0.031,inactive: -0.023,inactive: 0.036
RAN (UniProt P62826),inactive: 0.024,inactive: 0.05,inactive: 0.026,inactive: -0.053,inactive: -0.021,inactive: 0.012,inactive: -0.042,inactive: -0.059,inactive: -0.038,inactive: 0.032,inactive: -0.068,inactive: -0.011,inactive: -0.024,inactive: 0.011,inactive: -0.013,inactive: 0.02,inactive: -0.011,inactive: 0.045,inactive: -0.086,inactive: 0.007

# Some values from the entries so far:
# RAN (UniProt P62826) | log2 fold change [4]: inactive: -0.068
# RAD23A (UniProt P54725) | log2 fold change [1]: inactive: -0.027
